Entries after “also recorded” stand apart in the source; their conditions may differ. At least one compound was matched to its structure with a doubt left.
Biological target: T1, yeast NMT coexpressed with murine PK-A C-subunit in E. coli strain JM101 (Saccharomyces cerevisiae, UniProt P14743, S2A)
T1 construct: metabolic labeling in cells
Experiment: [3H]Fatty acid labeling of PK-A C-subunit produced in E. coli coexpressing yeast NMT1
Assay type: cell-based, S. cerevisiae
Procedure: [^3 H]Fatty acid labeling of PK-A C-subunit produced in E. coli. Four ml cultures of the double transformants were shaken at 37° C. to an OD600 of 0.5 in LB broth+100 μg/ml ampicillin and 100 μg/ml kanamycin sulfate. Isopropyl-β-D-thiogalactopyranoside (IPTG) was then added to a final concentration of 1 mM to induce NMT production (see Results, below). When the cultures reached OD600 =1.0 (approximately 40 min later), nalidixic acid was added to a final concentration of 50 μg/ml to induce C-subunit production (see Results, below). [^3 H]Myristate (New England Nuclear; 39.3 Ci/mmol, 113 μCi added per ml of culture), [^3 H]palmitate (New England Nuclear; 30 Ci/mmol, 143 μCi/ml), or [^3 H]10-(propoxy)decanoate [Heuckeroth and Gordon, Proc. Natl. Acad. Sci. USA 86, 5262-5266 (1989)] (31.7 Ci/mmol, 800 μCi/ml) was added simultaneously with the nalidixic acid. Cultures were shaken for an additional 20 min at 37° C. and the cells were harvested by centrifugation. Lysates were prepared by boiling E. coli contained in the pellet for 10 min in 40 μL of a solution of 125 mM Tris, pH 8.0, 4% SDS, 20% glycerol, 10% β-mercaptoethanol, and 0.2M dithiothreitol. Cell debris was removed by centrifugation and 15 μl aliquots of the supernatant were subjected to SDS-PAGE [Laemmli, Nature 227, 680-685 (1970)] and subsequent fluorography using EN^3 HANCE (New England Nuclear) autoradiography enhancer. […]

## CCCCCCCCCCCCCCCC(=O)O [[^3 H]palmitate, palmitate]
C18 reverse-phase HPLC
  Pronase E digestion product of the labeled C-subunit: co-migrated on C18 reverse-phase HPLC with [^3 H]myristoylglycine
E. coli JM101 with NMT1 and wild type Cα plasmids after induction, SDS-PAGE and fluorography
  incorporation of [3H]fatty acid into the C-subunit of PK-A: but not [^3 H]palmitate was efficiently linked; also recorded: could also be labeled in a Gly^2 dependent manner
